PubChem BioAssay AID624150 – Cancer Research UK Cambridge | 2012

Assay: 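Find chromatin regulators that change keratinocyte differentiation across several stimuli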 (primary screen)
System: primary human epidermal keratinocytes
Reagents: siRNA pool against human genes, 1-2 µM siRNA in 20 µl nucleofection
Duration: 72 h after transfection plus 48 h differentiation (about 5 days)
Conditions: five arms for 48 h: vehicle, AG1478 10 µM, BMP2/7 200 ng/ml, both together, or 10% serum
Measured: 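Per-cell amount of a differentiation marker read by infrared scanning of the plate, given as a z-score within each plate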
Direction: z-score, vehicle: higher = more differentiation marker per cell
This is a random part of 331 reagents tested. 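Each arm had three replicate z-scores, but only the first replicate is printed; higher values mean more differentiation marker per cell.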 Further read-outs or replicates are left out here.

HDAC4 (GeneID 9759) | z-score, vehicle = 0.379
TDRD3 (GeneID 81550) | z-score, vehicle = -0.142
SHMT2 (GeneID 6472) | z-score, vehicle = -0.5
MPHOSPH8 (GeneID 54737) | z-score, vehicle = 1.16
KMT2E (GeneID 55904) | z-score, vehicle = -1.63
JMJD6 (GeneID 23210) | z-score, vehicle = -1.31
PHRF1 (GeneID 57661) | z-score, vehicle = 0.749
MORF4L1 (GeneID 10933) | z-score, vehicle = -0.00773
MBD1 (GeneID 4152) | z-score, vehicle = 0.208
TNRC18 (GeneID 84629) | z-score, vehicle = -0.829
CBX6 (GeneID 23466) | z-score, vehicle = 1.42
TDRD1 (GeneID 56165) | z-score, vehicle = 1.2
KAT8 (GeneID 84148) | z-score, vehicle = 0.401
L3MBTL3 (GeneID 84456) | z-score, vehicle = -0.723
RIOX1 (GeneID 79697) | z-score, vehicle = 0.168
SETDB1 (GeneID 9869) | z-score, vehicle = -0.832
KAT7 (GeneID 11143) | z-score, vehicle = 0.0949
CXXC1 (GeneID 30827) | z-score, vehicle = -0.849
SIRT5 (GeneID 23408) | z-score, vehicle = 0.537

In a second layout: entries from further up.
{"target gene": "HDAC4 (GeneID 9759)", "z-score, vehicle": 0.379}
{"target gene": "TDRD3 (GeneID 81550)", "z-score, vehicle": -0.142}
